The values that follow come from publication PMC5293797.

By UniProt entry, the sequences of proteins in these tests, tags left out.
UniProt P63279: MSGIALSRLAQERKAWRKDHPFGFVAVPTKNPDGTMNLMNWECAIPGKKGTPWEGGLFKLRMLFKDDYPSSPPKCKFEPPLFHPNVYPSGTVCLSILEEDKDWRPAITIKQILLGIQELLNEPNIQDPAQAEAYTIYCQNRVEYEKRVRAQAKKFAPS

These are yes or no findings as the source states them, for the method shown. In cells and extracts the contact can be indirect. Some binding calls cover weakened binding; strength is not graded here.

This test concerns the target Myc-Ubc9 (UniProt P63279). Description: co-IP; HEK293 cells co-transfected with MEK1, Ubc9 and SUMO1 plasmids for 48 h; lysates immunoprecipitated with anti-c-Myc antibody (text: anti-Ubc9 antibody), immunoblotted with anti-HA or Myc antibody. Background: In western blotting, separated proteins are transferred to a membrane and probed.

Consider HA-MEK1 (from UniProt Q02750 1-393), for which the binding result is listed as “binds”.
